# Where a name gives a salt, the structure may show the parent alone. The list shows a part of the results. Single values are uncertain here, since repeats match poorly.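 Human fetal ventral-midbrain neural progenitor line ReNCell VM, differentiated without mitogens. Images stained for doublecortin (early neurons) or tyrosine hydroxylase (dopaminergic neurons) were scored by blinded raters against untreated wells (0 = no change). Repeats and both raters were averaged, and compounds averaging 2 or higher were picked as hits for retesting.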
# Columns and labels:
# ReNCell VM [1] = experiment: neuronal differentiation score (DCX+ cell fraction vs untreated, manual image score) (score (-3 to 3)); higher = more neuronal differentiation; conditions: 2 uM, 2 weeks
# ReNCell VM [2] = experiment: dopaminergic neuron differentiation score (TH+ cell fraction vs untreated, manual image score) (score (0 to 3)); higher = more TH+ dopaminergic neuron differentiation; conditions: 2 uM, 4 weeks, BDNF 10 ng/ml + GDNF 10 ng/ml
smiles,measurement,setting,value
CC1(C)C(C=C(Cl)Cl)C1C(=O)OC(C#N)c1cccc(Oc2ccccc2)c1 (configuration not stated),neuronal differentiation score,ReNCell VM [1]; library: Spectrum,inactive: 0
same,dopaminergic neuron differentiation score,ReNCell VM [2]; library: Spectrum,inactive: 0
CCN1C[C@]2(COC)[C@H](O)C[C@H](OC)[C@@]34[C@@H]5C[C@@]6(O)[C@H](OC(=O)c7ccccc7)[C@@H]5[C@@](OC(C)=O)([C@@H]([C@H](OC)[C@H]23)[C@@H]14)[C@@H](O)[C@@H]6OC [Aconitine],neuronal differentiation score,ReNCell VM [1]; library: Phytochemical,inactive: 0
same,dopaminergic neuron differentiation score,ReNCell VM [2]; library: Phytochemical,inactive: 0
CN(C)c1ccc(/C=C2\CCCN=C2c2cccnc2)cc1 [DMAB-anabaseine dihydrochloride],neuronal differentiation score,ReNCell VM [1]; library: Tocriscreen,inactive: 0
same,dopaminergic neuron differentiation score,ReNCell VM [2]; library: Tocriscreen,inactive: 0
COc1cccc(C2(O)CCCCC2CN(C)C)c1 (configuration not stated) [Tramadol hydrochloride],neuronal differentiation score,ReNCell VM [1]; library: Prestwick,inactive: 0
same,dopaminergic neuron differentiation score,ReNCell VM [2]; library: Prestwick,inactive: 1
CC(O)(CS(=O)(=O)c1ccc(F)cc1)C(=O)Nc1ccc(C#N)c(C(F)(F)F)c1 (configuration not stated) [Bicalutamide],neuronal differentiation score,ReNCell VM [1]; library: Prestwick,inactive: 0
same,dopaminergic neuron differentiation score,ReNCell VM [2]; library: Prestwick,inactive: 0
O=C(O)C1=CCCN(CCOC(c2ccc(C(F)(F)F)cc2)c2ccc(C(F)(F)F)cc2)C1 [CI 966 hydrochloride],neuronal differentiation score,ReNCell VM [1]; library: Tocriscreen,inactive: 0
same,dopaminergic neuron differentiation score,ReNCell VM [2]; library: Tocriscreen,inactive: 0
COc1cc([C@@H]2c3cc4c(cc3[C@H](OC(C)=O)[C@H]3COC(=O)[C@@H]23)OCO4)cc(OC)c1OC,neuronal differentiation score,ReNCell VM [1]; library: Spectrum,inactive: 0
same,dopaminergic neuron differentiation score,ReNCell VM [2]; library: Spectrum,inactive: 0
O=C([O-])c1ccccc1-c1c2cc(Br)c(=O)cc-2oc2[c]([Hg+])c([O-])c(Br)cc12.[Na+].[Na+].[OH-],neuronal differentiation score,ReNCell VM [1]; library: Spectrum,inactive: 1
same,dopaminergic neuron differentiation score,ReNCell VM [2]; library: Spectrum,inactive: 0
C[C@@H](N)[C@@H](O)c1ccccc1,neuronal differentiation score,ReNCell VM [1]; library: Spectrum,inactive: 0
same,dopaminergic neuron differentiation score,ReNCell VM [2]; library: Spectrum,inactive: 0
O=C1CCCN1CC#CCN1CCCC1 [Oxotremorine sesquifumarate],neuronal differentiation score,ReNCell VM [1]; library: Tocriscreen,inactive: 0
same,dopaminergic neuron differentiation score,ReNCell VM [2]; library: Tocriscreen,inactive: 0
C[C@H]1O[C@@H](C[N+](C)(C)C)CS1,neuronal differentiation score,ReNCell VM [1]; library: LOPAC,inactive: -1
same,dopaminergic neuron differentiation score,ReNCell VM [2]; library: LOPAC,inactive: 0
CC(NC(C)(C)C)C(=O)c1cccc(Cl)c1 (configuration not stated),neuronal differentiation score,ReNCell VM [1]; library: Spectrum,inactive: 0
same,dopaminergic neuron differentiation score,ReNCell VM [2]; library: Spectrum,inactive: 0
COc1cc2c(c(OC)c1OC)-c1ccc(OC)c(=O)cc1[C@@H](NC(C)=O)CC2,neuronal differentiation score,ReNCell VM [1]; library: Spectrum,inactive: 0
same,dopaminergic neuron differentiation score,ReNCell VM [2]; library: Spectrum,inactive: 0
OC1CCCCC1N1CCC(c2ccccc2)CC1 (configuration not stated),neuronal differentiation score,ReNCell VM [1]; library: Spectrum,inactive: 0
same,dopaminergic neuron differentiation score,ReNCell VM [2]; library: Spectrum,inactive: 0
c1ccc2c(c1)OCC(C1=NCCN1)O2 (configuration not stated),neuronal differentiation score,ReNCell VM [1]; library: Spectrum,inactive: 0
same,dopaminergic neuron differentiation score,ReNCell VM [2]; library: Spectrum,inactive: 0
Clc1cnc(Oc2ccc(Oc3ncc(Cl)cc3Cl)cc2)c(Cl)c1,neuronal differentiation score,ReNCell VM [1]; library: LOPAC,inactive: 0
same,dopaminergic neuron differentiation score,ReNCell VM [2]; library: LOPAC,inactive: 0
CNC(=O)Oc1ccc2c(c1)[C@]1(C)CC[N+](C)([O-])[C@@H]1N2C (some centres not stated) [Geneserine],neuronal differentiation score,ReNCell VM [1]; library: Phytochemical,inactive: 1
same,dopaminergic neuron differentiation score,ReNCell VM [2]; library: Phytochemical,inactive: 0
C[N+]1([O-])[C@@H]2C[C@@H](OC(=O)[C@H](CO)c3ccccc3)C[C@H]1[C@@H]1O[C@@H]12 (some centres not stated) [Scopolamin-N-oxide hydrobromide],neuronal differentiation score,ReNCell VM [1]; library: Prestwick,inactive: 0
same,dopaminergic neuron differentiation score,ReNCell VM [2]; library: Prestwick,inactive: 0
O=C(O)c1ccc2[nH]cc(CCCCN3CC=C(c4ccccc4)CC3)c2c1 [Carmoxirole hydrochloride],neuronal differentiation score,ReNCell VM [1]; library: Tocriscreen,inactive: 0
same,dopaminergic neuron differentiation score,ReNCell VM [2]; library: Tocriscreen,inactive: 0
NCCc1cc(O)c(O)cc1O,neuronal differentiation score,ReNCell VM [1]; library: Spectrum,inactive: 1
same,dopaminergic neuron differentiation score,ReNCell VM [2]; library: Spectrum,inactive: 0
CCC1(CC)C(=O)C=CNC1=O,neuronal differentiation score,ReNCell VM [1]; library: Spectrum,inactive: 0
same,dopaminergic neuron differentiation score,ReNCell VM [2]; library: Spectrum,inactive: 0
C#C[C@]1(O)CC[C@H]2[C@@H]3CCC4=CC(=O)CC[C@]4(C)[C@H]3CC[C@@]21C [Ethisterone],neuronal differentiation score,ReNCell VM [1]; library: Prestwick,inactive: 0
same,dopaminergic neuron differentiation score,ReNCell VM [2]; library: Prestwick,inactive: 0
CNCC(O)c1ccc(O)c(OC)c1 (stereo not drawn) [Metanephrine hydrochloride DL],neuronal differentiation score,ReNCell VM [1]; library: Phytochemical,inactive: 0
same,dopaminergic neuron differentiation score,ReNCell VM [2]; library: Phytochemical,inactive: 0
CCN1C[C@]2(COC)[C@H](O)C[C@H](OC)[C@@]34[C@@H]5C[C@@]6(O)[C@H](OC(=O)c7ccccc7)[C@@H]5[C@@](OC(C)=O)([C@@H]([C@H](OC)[C@H]23)[C@@H]14)[C@@H](O)[C@@H]6OC,neuronal differentiation score,ReNCell VM [1]; library: Spectrum,inactive: 1
same,dopaminergic neuron differentiation score,ReNCell VM [2]; library: Spectrum,inactive: 0
CP(=O)(O)C1=CCNCC1,neuronal differentiation score,ReNCell VM [1]; library: LOPAC,inactive: 0
same,dopaminergic neuron differentiation score,ReNCell VM [2]; library: LOPAC,inactive: 0
C[C@]12CC[C@@H](O)C[C@@H]1CC[C@@H]1[C@@H]2CC[C@]2(C)C(=O)CC[C@@H]12 [Androsterone],neuronal differentiation score,ReNCell VM [1]; library: Prestwick,inactive: 0
same,dopaminergic neuron differentiation score,ReNCell VM [2]; library: Prestwick,inactive: 0
COc1cc2c(cc1-c1cc3cc4ccoc4cc3oc1=O)OCO2,neuronal differentiation score,ReNCell VM [1]; library: Spectrum,inactive: 0
same,dopaminergic neuron differentiation score,ReNCell VM [2]; library: Spectrum,active: 3
CC[C@@H](C(N)=O)N1CCCC1=O [Levetiracetam],neuronal differentiation score,ReNCell VM [1]; library: Prestwick,inactive: 0
same,dopaminergic neuron differentiation score,ReNCell VM [2]; library: Prestwick,inactive: 0
CC(C)(C#N)O[C@@H]1O[C@H](CO)[C@@H](O)[C@H](O)[C@H]1O,neuronal differentiation score,ReNCell VM [1]; library: Spectrum,inactive: 0
same,dopaminergic neuron differentiation score,ReNCell VM [2]; library: Spectrum,inactive: 0
CC(C)c1cccc(C(C)C)c1O,neuronal differentiation score,ReNCell VM [1]; library: Spectrum,inactive: 0
same,dopaminergic neuron differentiation score,ReNCell VM [2]; library: Spectrum,inactive: 0
COC1=C[C@]23CCCN2CCc2cc4c(cc2[C@@H]3[C@@H]1O)OCO4 [cephalotaxine],neuronal differentiation score,ReNCell VM [1]; library: Natural,inactive: 0
same,dopaminergic neuron differentiation score,ReNCell VM [2]; library: Natural,inactive: 0

# Reformatted bar-delimited: part of the list above
smiles | measurement | setting | value
C[C@@H](N)[C@@H](O)c1ccccc1 | dopaminergic neuron differentiation score | ReNCell VM [2]; library: Spectrum | inactive: 0
O=C1CCCN1CC#CCN1CCCC1 [Oxotremorine sesquifumarate] | neuronal differentiation score | ReNCell VM [1]; library: Tocriscreen | inactive: 0

# A run of entries from further up, as a working copy:
smiles,measurement,setting,value
COc1cc2c(cc1-c1cc3cc4ccoc4cc3oc1=O)OCO2,neuronal differentiation score,ReNCell VM [1]; library: Spectrum,inactive: 0
same,dopaminergic neuron differentiation score,ReNCell VM [2]; library: Spectrum,active: 3
